Measurements reported in PubChem BioAssay AID1224826 (NIAID, 2016).
The whole screen tested about 17,000 reagents; below is a part drawn at random. In the full data, about 1,110 (6.6%) are marked active. 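Active means lowered or raised reporter signal; replicate intensities are raw and not normalised per plate.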 A number with no mark means an inactive call. Reagents against one gene are numbered here. Not all columns of the deposit are shown.

- Assay: 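Genes that change LPS-induced Tnf promoter activity in mouse macrophages when knocked down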 (primary screen)
- Cells: RAW264.7 G9 macrophages from mouse bearing reporters for p65 (GFP) and the Tnf promoter (mCherry)
- Knock-down reagent: siRNA pool against mouse genes, 100 nM
- Duration: 16 h of LPS stimulation, after 2 days of siRNA transfection
- Challenge: bacterial lipopolysaccharide (Salmonella minnesota R595), 10 ng/ml
- Measured: 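Nuclear mCherry signal of the Tnf promoter reporter measured by imaging after background removal, scaled to each plate median and turned into robust z-scores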
- Direction: Tnf reporter robust z-score: higher = stronger Tnf promoter reporter signal after LPS
- Rule for the call: 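Called active when robust z-score is at most -1.3, matching the median of the Tlr4 knock-down control, or over 3; control wells and wells with under 50 cells never active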
- Meaning of the calls: active = Tnf reporter clearly lowered or raised; inactive = no clear change in Tnf reporter

target gene	reagent no.	Tnf reporter robust z-score	fewer than 50 cells in well
Acly (ATP citrate lyase)	1	-0.22	enough cells in well
Calhm5 (calcium homeostasis modulator family member 5)	1	-0.45	enough cells in well
Bace2 (beta-site APP-cleaving enzyme 2)	1	0.75	enough cells in well
Or56b2 (olfactory receptor family 56 subfamily B member 2)	1	1.13	enough cells in well
Telo2 (telomere maintenance 2)	1	-0.09	enough cells in well
Dnajc24 (DnaJ heat shock protein family (Hsp40) member C24)	1	1.08	enough cells in well
Swap70 (SWA-70 protein)	1	-0.47	enough cells in well
B130040O20Rik (RIKEN cDNA B130040O20 gene)	1	-0.21	enough cells in well
M1ap (meiosis 1 associated protein)	1	-0.79	enough cells in well
Or10p22 (olfactory receptor family 10 subfamily P member 22)	1	0.31	enough cells in well
Nobox (NOBOX oogenesis homeobox)	1	1.23	enough cells in well
Dscam (DS cell adhesion molecule)	1		fewer than 50 cells per well; well left out of calls
Rnf169 (ring finger protein 169)	1	-0.22	enough cells in well
Armcx3 (armadillo repeat containing, X-linked 3)	1	0.59	enough cells in well
Mlph (melanophilin)	1	2.01	enough cells in well
Ren2 (renin 2 tandem duplication of Ren1)	1	-1.33 (active)	enough cells in well
Tigar (Trp53 induced glycolysis regulatory phosphatase)	1	-1.58 (active)	enough cells in well
Wwc2 (WW, C2 and coiled-coil domain containing 2)	1	1.26	enough cells in well
Upp1 (uridine phosphorylase 1)	1	0.68	enough cells in well
Zfp120 (zinc finger protein 120)	1	-0.15	enough cells in well
Ccdc77 (coiled-coil domain containing 77)	1	-0.72	enough cells in well
4930524B15Rik (RIKEN cDNA 4930524B15 gene)	1	-0.32	enough cells in well
Zc3h12a (zinc finger CCCH type containing 12A)	1	-1.18	enough cells in well
Defb39 (defensin beta 39)	1	-1.69 (active)	enough cells in well
Akap13 (A kinase anchor protein 13)	1	0.06	enough cells in well
Kcnq4 (potassium voltage-gated channel, subfamily Q, member 4)	1	-1.53 (active)	enough cells in well
Wdr47 (WD repeat domain 47)	1	0.11	enough cells in well
Zbtb44 (zinc finger and BTB domain containing 44)	1	-0.8	enough cells in well
Zbtb44 (zinc finger and BTB domain containing 44)	2	-0.59	enough cells in well
Gcnt1 (glucosaminyl (N-acetyl) transferase 1, core 2)	1	-0.69	enough cells in well
Syt16 (synaptotagmin XVI)	1	3.68 (active)	enough cells in well
Or6p1 (olfactory receptor family 6 subfamily P member 1)	1	0.01	enough cells in well
Utp4 (UTP4 small subunit processome component)	1	0.2	enough cells in well
Trim8 (tripartite motif-containing 8)	1	-0.14	enough cells in well
Api5 (apoptosis inhibitor 5)	1	0.63	enough cells in well
Or8g36 (olfactory receptor family 8 subfamily G member 36)	1	1.5	enough cells in well
Cdh5 (cadherin 5)	1	1.24	enough cells in well
Nde1 (nudE neurodevelopment protein 1)	1	-0.23	enough cells in well
Or6e1 (olfactory receptor family 6 subfamily E member 1)	1		fewer than 50 cells per well; well left out of calls
Numa1 (nuclear mitotic apparatus protein 1)	1	-0.62	enough cells in well
Fam162a (family with sequence similarity 162, member A)	1		fewer than 50 cells per well; well left out of calls
Fth1 (ferritin heavy polypeptide 1)	1	0.02	enough cells in well
Selenom (selenoprotein M)	1	1.42	enough cells in well
1700088E04Rik (RIKEN cDNA 1700088E04 gene)	1	-0.43	enough cells in well
Krtap31-1 (keratin associated protein 31-1)	1		fewer than 50 cells per well; well left out of calls
Ankrd54 (ankyrin repeat domain 54)	1	-0.38	enough cells in well
Nsg2 (neuron specific gene family member 2)	1	2.71	enough cells in well
Mrpl54 (mitochondrial ribosomal protein L54)	1	2.14	enough cells in well
Gba2 (glucosidase beta 2)	1	-0.28	enough cells in well
Dleu7 (deleted in lymphocytic leukemia, 7)	1	-0.53	enough cells in well
Plvap (plasmalemma vesicle associated protein)	1		fewer than 50 cells per well; well left out of calls
Zxdc (ZXD family zinc finger C)	1	-0.4	enough cells in well
Hif1an (hypoxia-inducible factor 1, alpha subunit inhibitor)	1	0.09	enough cells in well
Hormad1 (HORMA domain containing 1)	1		fewer than 50 cells per well; well left out of calls
Mest (mesoderm specific transcript)	1	-0.66	enough cells in well
Ripor1 (RHO family interacting cell polarization regulator 1)	1		fewer than 50 cells per well; well left out of calls
E130113K22RIK	1	1.25	enough cells in well
Th (tyrosine hydroxylase)	1	0.4	enough cells in well
